No constants are given. Whether binding was seen depends on the method and setting. In cells and extracts the contact can be indirect. These calls come from enrichment with a bait or labelling near it, and not all partners need be listed. For part of these data: A no says only that the protein was not detected with the bait.
T1: PkaC1, major protein kinase A (PKA) catalytic subunit of Aspergillus fumigatus (Aspergillus fumigatus) (UniProt Q8J129)
T1 sequence: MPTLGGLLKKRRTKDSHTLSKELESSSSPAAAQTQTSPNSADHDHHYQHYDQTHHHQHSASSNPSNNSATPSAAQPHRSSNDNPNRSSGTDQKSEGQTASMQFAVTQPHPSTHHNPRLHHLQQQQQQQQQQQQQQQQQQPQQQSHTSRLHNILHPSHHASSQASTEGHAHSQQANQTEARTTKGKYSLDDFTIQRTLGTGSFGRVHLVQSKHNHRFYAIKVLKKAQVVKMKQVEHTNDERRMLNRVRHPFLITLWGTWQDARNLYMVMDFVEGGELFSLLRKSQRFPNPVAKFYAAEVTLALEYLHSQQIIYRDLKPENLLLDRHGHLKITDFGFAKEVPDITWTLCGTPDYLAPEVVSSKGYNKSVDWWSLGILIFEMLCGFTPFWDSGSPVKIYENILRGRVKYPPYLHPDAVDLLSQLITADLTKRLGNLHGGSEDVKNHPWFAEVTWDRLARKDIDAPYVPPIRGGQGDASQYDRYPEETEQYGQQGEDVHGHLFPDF

Chains of the proteins cited; added tags and fusions are not shown. Lines headed by an entry give the natural chain unless they say otherwise; changes in a name come on top.
UniProt Q4WMT1: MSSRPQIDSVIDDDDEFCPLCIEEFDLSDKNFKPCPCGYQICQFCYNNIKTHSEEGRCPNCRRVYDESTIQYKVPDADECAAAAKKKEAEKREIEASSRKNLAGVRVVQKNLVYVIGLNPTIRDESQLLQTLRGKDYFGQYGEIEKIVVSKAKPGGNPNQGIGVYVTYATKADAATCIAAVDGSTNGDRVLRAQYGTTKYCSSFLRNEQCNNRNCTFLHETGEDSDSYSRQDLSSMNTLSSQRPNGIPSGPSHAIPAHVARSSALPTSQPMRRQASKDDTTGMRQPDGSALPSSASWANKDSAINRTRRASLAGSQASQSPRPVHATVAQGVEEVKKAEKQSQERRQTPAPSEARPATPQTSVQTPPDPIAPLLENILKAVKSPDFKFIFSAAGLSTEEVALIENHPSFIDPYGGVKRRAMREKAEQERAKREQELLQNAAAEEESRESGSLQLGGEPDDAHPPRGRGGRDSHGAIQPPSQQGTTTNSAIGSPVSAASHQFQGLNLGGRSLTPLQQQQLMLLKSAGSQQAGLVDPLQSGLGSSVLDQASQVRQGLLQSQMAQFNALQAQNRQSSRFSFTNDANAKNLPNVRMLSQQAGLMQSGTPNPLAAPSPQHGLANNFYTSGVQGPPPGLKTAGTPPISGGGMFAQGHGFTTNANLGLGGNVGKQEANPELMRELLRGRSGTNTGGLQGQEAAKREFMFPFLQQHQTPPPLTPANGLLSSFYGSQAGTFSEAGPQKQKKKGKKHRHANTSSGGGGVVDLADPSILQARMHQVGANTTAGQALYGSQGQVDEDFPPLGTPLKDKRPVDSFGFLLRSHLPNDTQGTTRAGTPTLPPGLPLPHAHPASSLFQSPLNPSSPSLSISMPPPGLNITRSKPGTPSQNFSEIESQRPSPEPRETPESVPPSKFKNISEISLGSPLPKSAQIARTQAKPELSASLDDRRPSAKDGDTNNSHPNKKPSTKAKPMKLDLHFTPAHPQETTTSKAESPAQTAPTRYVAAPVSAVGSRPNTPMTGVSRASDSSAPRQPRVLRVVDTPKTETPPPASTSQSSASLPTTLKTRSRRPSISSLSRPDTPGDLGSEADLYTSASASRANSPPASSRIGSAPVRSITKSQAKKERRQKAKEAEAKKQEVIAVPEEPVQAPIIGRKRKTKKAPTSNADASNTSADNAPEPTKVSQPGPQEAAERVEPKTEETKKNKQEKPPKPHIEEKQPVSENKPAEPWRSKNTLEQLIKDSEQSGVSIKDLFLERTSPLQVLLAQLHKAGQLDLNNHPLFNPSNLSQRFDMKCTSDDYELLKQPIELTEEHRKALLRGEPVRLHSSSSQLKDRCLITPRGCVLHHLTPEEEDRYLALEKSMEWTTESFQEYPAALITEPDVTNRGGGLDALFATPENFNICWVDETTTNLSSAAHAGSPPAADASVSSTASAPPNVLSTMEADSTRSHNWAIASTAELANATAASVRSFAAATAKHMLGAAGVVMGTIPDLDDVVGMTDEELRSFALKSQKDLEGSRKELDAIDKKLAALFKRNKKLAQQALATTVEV


target: T1, PkaC1, major protein kinase A (PKA) catalytic subunit of Aspergillus fumigatus (Aspergillus fumigatus); test: affinity purification with mass spectrometry; PkaC1 interactome: proteins coimmunoprecipitated with PkaC1 in an affinity purification procedure (GFP-Trap) from A. fumigatus crude extracts, identified by LC-MS/MS

| Molecule | binding |
| --- | --- |
| Not3, putative member of the CCR4-NOT complex of Aspergillus fumigatus | binds |
| Not1, putative member of the CCR4-NOT complex of Aspergillus fumigatus | binds |
| HapB, CCAAT-binding transcription factor subunit of Aspergillus fumigatus | no binding |
| Not4, CCR4-NOT core complex subunit (ubiquitin ligase) of Aspergillus fumigatus (from UniProt Q4WMT1) | binds |
| Not2, putative member of the CCR4-NOT complex of Aspergillus fumigatus | binds |

target: T1, PkaC1, major protein kinase A (PKA) catalytic subunit of Aspergillus fumigatus (Aspergillus fumigatus); test: as above; remark: another data set of the same source

| Molecule | binding |
| --- | --- |
| Atg24, autophagy-associated protein (vacuolar targeting protein; sorting nexin) of Aspergillus fumigatus (protein, UniProt Q4WQI6 1-497) MDQHDDFDSVSWRQDPESDISRPTTSGTDADESLEYNRDTNGKRRMSSVHEDPPQAGPLADAVDLAGIGDGVLECRVDSPLKENDGTKDAYISYLVTTHTDFKSFQKPDFAVRRRFTDFYFLYKTLYREYPACAVPPLPEKHKMEYVTGDRFGPEFTSRRAWSLHRFLKRLTLHPVLRRAPLLAIFLESPDWNAHMRLHSTRTSTGNSDGSGTGIFDNFTDTFVNAFTKVHKPDRRFIEVKEKADKLDEDLNHVEKIVARVARRESDLEADYNDLATQFRKLVPLEPDVEVPLQIFAASVEETARGFKMLKDHTDQNYLGSLRDMEAYIVSVKALLKTREQKQLDFEALVDYRNKAVAERDSLAANPSSYYASNPLTSSPASFIRSKMEDMRGVDHEQSRRERVRKLELRIDELTREVESAKTTSEMFDEEVVREVADFERIKAVEFRDTLGALAEKHIDFFQGAINTWERFVAEMEGDLDNDPEMSEHGRGGGVAA | binds |

From PMC7773993
